# According to the supplement of paper PMC4604168 (melanoma cell lines):
# The other results are listed elsewhere or left out. Many values rest on one well or one pass, so single values are uncertain.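 Cells were imaged in 1,536-well plates, and nuclei stained with an antibody against cleaved PARP were counted against all DNA-stained nuclei to give the apoptosis fraction. Screening doses were chosen to leave most cells alive, and resting and induced cleaved-PARP levels differ strongly between cell lines.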
# Experiments:
# Assay in all cases: cleaved PARP positive nuclei fraction relative to DMSO control; melanoma cells; higher = more apoptosis
# Conditions in all cases: library dose: low library concentration; 72 h
# [1] = tested on: CBRC034 (line from a melanoma biopsy)
# [2] = tested on: COLO792
# [3] = tested on: COLO800
# [4] = tested on: COLO829
# [5] = tested on: G361
# [6] = tested on: IPC-298
# [7] = tested on: IST-MEL1
# [8] = tested on: LB2518-MEL
# [9] = tested on: LOXIMVI
compound,measurement,setting,value
"CC1(C)NC(=O)N(c2ccc([N+](=O)[O-])c(C(F)(F)F)c2)C1=O [nilutamide] + C/C(O)=C(\C#N)C(=O)Nc1cc(Br)ccc1Br [LFM-A13] (first compound 1 µM, partner dose 2 µM)",cleaved PARP positive nuclei fraction,[1],92.9%
same,cleaved PARP positive nuclei fraction,[2],105%
same,cleaved PARP positive nuclei fraction,[3],102%
same,cleaved PARP positive nuclei fraction,[4],94.1%
same,cleaved PARP positive nuclei fraction,[5],134%
same,cleaved PARP positive nuclei fraction,[6],107%
same,cleaved PARP positive nuclei fraction,[7],156%
same,cleaved PARP positive nuclei fraction,[8],191%
same,cleaved PARP positive nuclei fraction,[9],34.6%
"O=C(Oc1ccc([N+](=O)[O-])cc1)N1CCC(C(O)(c2ccc3c(c2)OCO3)c2ccc3c(c2)OCO3)CC1 + Cn1cc(/C=C2\C(=O)Nc3cccnc32)c2ccccc21 [GW441756] (first compound 1 µM, partner dose 0.4 µM)",cleaved PARP positive nuclei fraction,[1],88.6%
same,cleaved PARP positive nuclei fraction,[2],63.6%
same,cleaved PARP positive nuclei fraction,[3],140%
same,cleaved PARP positive nuclei fraction,[4],91.8%
same,cleaved PARP positive nuclei fraction,[5],167%
same,cleaved PARP positive nuclei fraction,[6],98.2%
same,cleaved PARP positive nuclei fraction,[7],167%
same,cleaved PARP positive nuclei fraction,[8],196%
same,cleaved PARP positive nuclei fraction,[9],76.3%
"Cc1cc(SCc2sc(-c3ccc(C(F)(F)F)c(F)c3)nc2C)ccc1OCC(=O)O + Oc1nc(-c2ccc(C(F)(F)F)cc2)nc2c1CSCC2 [XAV939] (first compound 2 µM, partner dose 2 µM)",cleaved PARP positive nuclei fraction,[1],131%
same,cleaved PARP positive nuclei fraction,[2],144%
same,cleaved PARP positive nuclei fraction,[3],33.8%
same,cleaved PARP positive nuclei fraction,[4],75.9%
same,cleaved PARP positive nuclei fraction,[5],84.3%
same,cleaved PARP positive nuclei fraction,[6],58.4%
same,cleaved PARP positive nuclei fraction,[7],57.5%
same,cleaved PARP positive nuclei fraction,[8],97%
same,cleaved PARP positive nuclei fraction,[9],208%
"C=CCn1c(=O)c2cnc(Nc3ccc(N4CCN(C)CC4)cc3)nc2n1-c1cccc(C(C)(C)O)n1 + O=C(Oc1ccc([N+](=O)[O-])cc1)N1CCC(C(O)(c2ccc3c(c2)OCO3)c2ccc3c(c2)OCO3)CC1 [JZL184] (first compound 0.02 µM, partner dose 1 µM)",cleaved PARP positive nuclei fraction,[1],107%
same,cleaved PARP positive nuclei fraction,[2],77.5%
same,cleaved PARP positive nuclei fraction,[3],166%
same,cleaved PARP positive nuclei fraction,[4],44.8%
same,cleaved PARP positive nuclei fraction,[5],85%
same,cleaved PARP positive nuclei fraction,[6],200%
same,cleaved PARP positive nuclei fraction,[7],81.4%
same,cleaved PARP positive nuclei fraction,[8],110%
same,cleaved PARP positive nuclei fraction,[9],75.3%
"Cc1cc(SCc2sc(-c3ccc(C(F)(F)F)c(F)c3)nc2C)ccc1OCC(=O)O + Oc1cc(-c2nc(-c3ccccc3)[nH]c2-c2ccncc2)ccc1Cl [L779450] (first compound 2 µM, partner dose 0.2 µM)",cleaved PARP positive nuclei fraction,[1],120%
same,cleaved PARP positive nuclei fraction,[2],132%
same,cleaved PARP positive nuclei fraction,[3],45.2%
same,cleaved PARP positive nuclei fraction,[4],163%
same,cleaved PARP positive nuclei fraction,[5],324%
same,cleaved PARP positive nuclei fraction,[6],192%
same,cleaved PARP positive nuclei fraction,[7],63%
same,cleaved PARP positive nuclei fraction,[8],176%
same,cleaved PARP positive nuclei fraction,[9],27.4%
"NC(=O)Nc1cc(-c2cccc(F)c2)sc1C(=O)N[C@H]1CCCNC1 + C/C(O)=C(\C#N)C(=O)Nc1cc(Br)ccc1Br [LFM-A13] (first compound 0.02 µM, partner dose 2 µM)",cleaved PARP positive nuclei fraction,[1],134%
same,cleaved PARP positive nuclei fraction,[2],51.1%
same,cleaved PARP positive nuclei fraction,[3],99.9%
same,cleaved PARP positive nuclei fraction,[4],47.4%
same,cleaved PARP positive nuclei fraction,[5],123%
same,cleaved PARP positive nuclei fraction,[6],55%
same,cleaved PARP positive nuclei fraction,[7],143%
same,cleaved PARP positive nuclei fraction,[8],192%
same,cleaved PARP positive nuclei fraction,[9],641%
"Cn1cncc1[C@@](N)(c1ccc(Cl)cc1)c1ccc2c(c1)c(-c1cccc(Cl)c1)cc(=O)n2C [tipifarnib] + O=C(Oc1ccc([N+](=O)[O-])cc1)N1CCC(C(O)(c2ccc3c(c2)OCO3)c2ccc3c(c2)OCO3)CC1 [JZL184] (first compound 0.01 µM, partner dose 1 µM)",cleaved PARP positive nuclei fraction,[1],87.4%
same,cleaved PARP positive nuclei fraction,[2],55.3%
same,cleaved PARP positive nuclei fraction,[3],218%
same,cleaved PARP positive nuclei fraction,[4],91.7%
same,cleaved PARP positive nuclei fraction,[5],30%
same,cleaved PARP positive nuclei fraction,[6],63.5%
same,cleaved PARP positive nuclei fraction,[7],85.7%
same,cleaved PARP positive nuclei fraction,[8],164%
same,cleaved PARP positive nuclei fraction,[9],54.7%
"Cn1c(Nc2ccc(C(F)(F)F)cc2)nc2cc(Oc3ccnc(-c4ncc(C(F)(F)F)[nH]4)c3)ccc21 + Cc1cc(SCc2sc(-c3ccc(C(F)(F)F)c(F)c3)nc2C)ccc1OCC(=O)O [GW0742] (first compound 0.08 µM, partner dose 2 µM)",cleaved PARP positive nuclei fraction,[1],43.8%
same,cleaved PARP positive nuclei fraction,[2],510%
same,cleaved PARP positive nuclei fraction,[3],230%
same,cleaved PARP positive nuclei fraction,[4],176%
same,cleaved PARP positive nuclei fraction,[5],78.8%
same,cleaved PARP positive nuclei fraction,[6],91.1%
same,cleaved PARP positive nuclei fraction,[7],35.3%
same,cleaved PARP positive nuclei fraction,[8],264%
same,cleaved PARP positive nuclei fraction,[9],64.9%
"CCc1ccc(CCOc2ccc(CC3SC(=O)NC3=O)cc2)nc1 (centres undefined) [pioglitazone] + C/C(O)=C(\C#N)C(=O)Nc1cc(Br)ccc1Br [LFM-A13] (first compound 2 µM, partner dose 2 µM)",cleaved PARP positive nuclei fraction,[1],47.2%
same,cleaved PARP positive nuclei fraction,[2],83.1%
same,cleaved PARP positive nuclei fraction,[3],127%
same,cleaved PARP positive nuclei fraction,[4],83.1%
same,cleaved PARP positive nuclei fraction,[5],188%
same,cleaved PARP positive nuclei fraction,[6],42.9%
same,cleaved PARP positive nuclei fraction,[7],185%
same,cleaved PARP positive nuclei fraction,[8],99.5%
same,cleaved PARP positive nuclei fraction,[9],77.4%
"Cc1cc(SCc2sc(-c3ccc(C(F)(F)F)c(F)c3)nc2C)ccc1OCC(=O)O + O=C1NC(=O)/C(=C/c2ccc(-c3ccc(F)cc3O)o2)S1 [AS252424] (first compound 2 µM, partner dose 1 µM)",cleaved PARP positive nuclei fraction,[1],47.9%
same,cleaved PARP positive nuclei fraction,[2],119%
same,cleaved PARP positive nuclei fraction,[3],145%
same,cleaved PARP positive nuclei fraction,[4],114%
same,cleaved PARP positive nuclei fraction,[5],81.3%
same,cleaved PARP positive nuclei fraction,[6],90.6%
same,cleaved PARP positive nuclei fraction,[7],44%
same,cleaved PARP positive nuclei fraction,[8],91.4%
same,cleaved PARP positive nuclei fraction,[9],173%
"c1cc(-c2cnn3cc(-c4ccc(OCCN5CCCCC5)cc4)cnc23)ccn1 [Dorsomorphin] + O=C(Oc1ccc([N+](=O)[O-])cc1)N1CCC(C(O)(c2ccc3c(c2)OCO3)c2ccc3c(c2)OCO3)CC1 [JZL184] (first compound 0.4 µM, partner dose 1 µM)",cleaved PARP positive nuclei fraction,[1],63.3%
same,cleaved PARP positive nuclei fraction,[2],70.3%
same,cleaved PARP positive nuclei fraction,[3],64.3%
same,cleaved PARP positive nuclei fraction,[4],77.9%
same,cleaved PARP positive nuclei fraction,[5],121%
same,cleaved PARP positive nuclei fraction,[6],78.5%
same,cleaved PARP positive nuclei fraction,[7],362%
same,cleaved PARP positive nuclei fraction,[8],92.5%
same,cleaved PARP positive nuclei fraction,[9],53.4%

# A second format for some results above:
compound | measurement | setting | value
O=C(Oc1ccc([N+](=O)[O-])cc1)N1CCC(C(O)(c2ccc3c(c2)OCO3)c2ccc3c(c2)OCO3)CC1 + Cn1cc(/C=C2\C(=O)Nc3cccnc32)c2ccccc21 [GW441756] (first compound 1 µM, partner dose 0.4 µM) | cleaved PARP positive nuclei fraction | [2] | 63.6%
same | cleaved PARP positive nuclei fraction | [3] | 140%
same | cleaved PARP positive nuclei fraction | [4] | 91.8%
same | cleaved PARP positive nuclei fraction | [5] | 167%
same | cleaved PARP positive nuclei fraction | [6] | 98.2%
same | cleaved PARP positive nuclei fraction | [7] | 167%
same | cleaved PARP positive nuclei fraction | [8] | 196%
same | cleaved PARP positive nuclei fraction | [9] | 76.3%
Cc1cc(SCc2sc(-c3ccc(C(F)(F)F)c(F)c3)nc2C)ccc1OCC(=O)O + Oc1nc(-c2ccc(C(F)(F)F)cc2)nc2c1CSCC2 [XAV939] (first compound 2 µM, partner dose 2 µM) | cleaved PARP positive nuclei fraction | [1] | 131%
same | cleaved PARP positive nuclei fraction | [2] | 144%
same | cleaved PARP positive nuclei fraction | [3] | 33.8%
same | cleaved PARP positive nuclei fraction | [4] | 75.9%
same | cleaved PARP positive nuclei fraction | [5] | 84.3%
same | cleaved PARP positive nuclei fraction | [6] | 58.4%
same | cleaved PARP positive nuclei fraction | [7] | 57.5%
same | cleaved PARP positive nuclei fraction | [8] | 97%
same | cleaved PARP positive nuclei fraction | [9] | 208%
C=CCn1c(=O)c2cnc(Nc3ccc(N4CCN(C)CC4)cc3)nc2n1-c1cccc(C(C)(C)O)n1 + O=C(Oc1ccc([N+](=O)[O-])cc1)N1CCC(C(O)(c2ccc3c(c2)OCO3)c2ccc3c(c2)OCO3)CC1 [JZL184] (first compound 0.02 µM, partner dose 1 µM) | cleaved PARP positive nuclei fraction | [1] | 107%
same | cleaved PARP positive nuclei fraction | [2] | 77.5%
same | cleaved PARP positive nuclei fraction | [3] | 166%
